Assay results taken from PMC3102111.
No constants are given. Whether binding was seen depends on the method and setting. For part of these data: In cells and extracts the contact can be indirect. Some binding calls cover weakened binding; strength is not graded here. For part of these data: Sequences can lack the tags named with a protein.

Amino acid sequences for entries named in this document (tags omitted). A change or cut given only in a name is not applied to a line headed by its entry.
UniProt Q05086: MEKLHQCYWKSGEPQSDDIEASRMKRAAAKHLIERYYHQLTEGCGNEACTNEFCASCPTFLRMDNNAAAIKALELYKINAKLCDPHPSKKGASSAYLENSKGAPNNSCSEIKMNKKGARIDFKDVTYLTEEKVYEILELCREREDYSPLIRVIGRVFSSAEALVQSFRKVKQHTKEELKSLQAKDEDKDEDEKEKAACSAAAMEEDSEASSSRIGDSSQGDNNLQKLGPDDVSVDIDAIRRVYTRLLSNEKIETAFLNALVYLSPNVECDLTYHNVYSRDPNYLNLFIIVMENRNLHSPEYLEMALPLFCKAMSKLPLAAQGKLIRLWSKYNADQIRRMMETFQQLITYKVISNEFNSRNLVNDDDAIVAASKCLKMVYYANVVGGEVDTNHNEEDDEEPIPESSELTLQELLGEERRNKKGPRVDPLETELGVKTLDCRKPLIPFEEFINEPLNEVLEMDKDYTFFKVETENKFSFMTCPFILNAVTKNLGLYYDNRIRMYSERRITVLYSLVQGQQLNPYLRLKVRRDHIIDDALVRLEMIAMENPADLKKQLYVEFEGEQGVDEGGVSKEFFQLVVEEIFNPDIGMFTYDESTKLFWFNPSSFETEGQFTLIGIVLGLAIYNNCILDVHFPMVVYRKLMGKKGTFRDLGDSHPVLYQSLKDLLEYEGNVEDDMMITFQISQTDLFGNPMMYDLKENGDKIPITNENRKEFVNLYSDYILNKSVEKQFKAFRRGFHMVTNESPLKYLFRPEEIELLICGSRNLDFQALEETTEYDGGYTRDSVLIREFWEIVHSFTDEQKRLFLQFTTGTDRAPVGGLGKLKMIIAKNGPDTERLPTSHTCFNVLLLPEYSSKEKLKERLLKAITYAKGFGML

Key:
[1] = molecular target: UBE3A (ubiquitin protein ligase E3A), endogenous (human (endogenous in human fetal kidney tissue)) (UniProt Q05086); assay: co-IP; endogenous proteins in human fetal kidney tissue lysate (1 mg, pre-cleared); primary antibody 3 hr at 4°C, protein-A/G agarose beads; IP buffer 20 mM HEPES pH 7.5, 150 mM NaCl, 1 mM EDTA, 0.5% NP-40; Western blot
[2] = molecular target: ASPM (abnormal spindle-like, microcephaly-associated protein), endogenous (human (endogenous in human fetal kidney tissue)) (UniProt Q8IZT6); assay: as above
[3] = molecular target: T1, C-terminal region of ASPM (CTR), amino acids 3,276–3,477, fused to the GAL4 DNA-binding domain (pGBKT7-CTR) (human) (UniProt Q8IZT6); assay: two-hybrid; … GAL4 Two-Hybrid System 3, S. cerevisiae AH109; growth on quadruple dropout medium (SD/-His/-Ade/-Leu/-Trp) and blue colour on X-α-gal plates (MEL1 reporter), 30°C, 3 to 4 days; bait in pGBKT7 (DNA-BD), prey in pACT2 (AD)
T1 sequence: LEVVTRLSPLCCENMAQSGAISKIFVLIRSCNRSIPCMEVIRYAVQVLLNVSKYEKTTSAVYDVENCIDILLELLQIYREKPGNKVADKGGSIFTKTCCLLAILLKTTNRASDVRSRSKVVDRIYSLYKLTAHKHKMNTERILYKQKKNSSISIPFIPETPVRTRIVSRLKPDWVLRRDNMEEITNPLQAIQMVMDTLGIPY

## ASPM (abnormal spindle-like, microcephaly-associated protein), endogenous (from UniProt Q8IZT6 1-3477)
[1]
  binding: binds

## UBE3A (ubiquitin protein ligase E3A), endogenous (from UniProt Q05086 1-875)
[2]
  binding: binds

## UBE3A fragment, amino acids 639–875, fused to the GAL4 activation domain (pACT2-UBE3A) (from UniProt Q05086 639-875) (domain or fragment)
[3]
  binding: binds
